PubChem BioAssay AID1224830, NIAID – 2016
This is an unselected part of about 18,000 reagents. About 2,900 of all reagents (16%) count as active. 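Calls are made per well; low scores hint the gene aids the LPS response, high scores that it dampens it.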 Repeated entries: four replicate wells of each siRNA pool.

- Screen: 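Regulators of TLR4 signalling towards TNF-alpha in macrophage-like cells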 (primary screen)
- System: human THP-1 monocytic leukaemia cells, TNF dual-luciferase reporter clone, PMA-differentiated to macrophage-like cells
- Reagents: siRNA pool against human genes, 50 nM
- Duration: LPS for 4 h, given about 3 days after siRNA transfection
- Conditions: bacterial LPS (TLR4 ligand), 10 ng/ml
- Measurement: 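Ratio of firefly to renilla light, scaled to the plate median and expressed as a robust z-score per replicate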
- Direction: TNF reporter robust z-score: higher = stronger TNF reporter response to LPS
- Call rule: 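Each well counts as active if its z-score is over 2.8 or under -1.5; controls are left without a call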

GOLGA3 [SID315448967] → TNF reporter robust z-score = 0.82; Call = inactive
GOLGA3 [SID315448967] → TNF reporter robust z-score = 0.31; Call = inactive
GOLGA3 [SID315448967] → TNF reporter robust z-score = 0.01; Call = inactive
GOLGA3 [SID315448967] → TNF reporter robust z-score = 1.85; Call = inactive
ACTL7B [SID315454422] → TNF reporter robust z-score = 0.45; Call = inactive
ACTL7B [SID315454422] → TNF reporter robust z-score = -0.23; Call = inactive
ACTL7B [SID315454422] → TNF reporter robust z-score = 0.69; Call = inactive
ACTL7B [SID315454422] → TNF reporter robust z-score = 1.34; Call = inactive

Continued, starting with the last 2 of the part before.
ACTL7B [SID315454422] → TNF reporter robust z-score = 0.69; Call = inactive
ACTL7B [SID315454422] → TNF reporter robust z-score = 1.34; Call = inactive
CRYGA [SID315448109] → TNF reporter robust z-score = -0.82; Call = inactive
CRYGA [SID315448109] → TNF reporter robust z-score = -0.41; Call = inactive
CRYGA [SID315448109] → TNF reporter robust z-score = -0.6; Call = inactive
CRYGA [SID315448109] → TNF reporter robust z-score = -0.39; Call = inactive
FSIP1 [SID315462736] → TNF reporter robust z-score = -0.23; Call = inactive
FSIP1 [SID315462736] → TNF reporter robust z-score = -0.42; Call = inactive
FSIP1 [SID315462736] → TNF reporter robust z-score = -0.07; Call = inactive
FSIP1 [SID315462736] → TNF reporter robust z-score = -1.46; Call = inactive
NTM [SID315456380] → TNF reporter robust z-score = 1.25; Call = inactive
NTM [SID315456380] → TNF reporter robust z-score = 0.4; Call = inactive
NTM [SID315456380] → TNF reporter robust z-score = 2.17; Call = inactive
NTM [SID315456380] → TNF reporter robust z-score = -0.23; Call = inactive
